{
  "source": "patent US7854922B2",
  "about": "“Skin preparation for external use characterized by containing sugar derivative of α, α-trehalose” (Kabushiki Kaisha Hayashibara Seibutsu Kagaku Kenkyujo, priority 2003, dated 2010)",
  "test": "Test for absorbing or releasing moisture (comparison with usual moisturizing agents)",
  "format": "physicochemical",
  "settings": "75% sample, after RH 60% for 216 hours; RH 80%, 168 hours; listed as sorbitol",
  "method": "The syrup containing saccharide derivatives of α,α-trehalose was confirmed to have a satisfactory property of absorbing and releasing moisture. To compare other saccharide used as a usual moisturizing agent for cosmetics, the following experiment was carried out. Test samples, containing 75%, on a dry solid basis, of either of the syrup prepared in Example 6, concentrated glycerin, sorbitol or maltitol, were prepared. About 1 g of each solution was placed in two containers. The containers were preciously weighed and kept at RH 60% for 216 hours. One of containers was kept at RH 80% and the other container was kept at PH 33%. After 24 hours or 168 hours, they were weighed.",
  "note": "Some results were stated once for a whole list of compounds, not compound by compound.",
  "data": [
    {"smiles": "OC[C@@H](O)[C@@H](O)[C@H](O)[C@@H](O)CO", "note": "[Sorbitol, sorbitol]", "values": [
      {"measurement": "Relative weight change rate (%)", "result": "≥ 10", "unit": "%"}
    ]}
  ]
}
